# Measurements taken from PubChem BioAssay AID504834 (National Center for Advancing Translational Sciences (NCATS), 2011).
# In all, about 320,000 compounds went through this assay and about 22,000 (6.9%) were called active. Inconclusive means that the source gave no clear call. Such entries were picked first, then a sample of the others. Calls follow the shape of the dose curve; as a rule, active = well fitted inhibition curve with a large enough effect; inconclusive = small, poorly fitted or top-dose-only effect, or another doubt; inactive = no such curve, though single readings can be large or run the other way. Potencies beside an inconclusive call are fits to weak or partial responses and may not hold up.
# Experiment: Primary qHTS for delayed death inhibitors of the malarial parasite plastid, 96 hour incubation
# Settings: P. falciparum luciferase reporter growth; series mostly up to 28.7 µM
# Method in brief: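 Plates of compound plus infected erythrocytes (2% hematocrit, 0.05% parasitemia final) incubate 96 hours, 37 C, 5% CO2. Detection reagent added; reduced luminescence from the parasites' luciferase reporter flags inhibition.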
# Potency is read from the fitted curve at half-maximal effect.
row,SMILES,Potency
1,CC1CCCC(NC(=O)CSC2=Nc3ccccc3C3CC=NN23)C1C (stereo not drawn),"inconclusive: 18.5 µM [inhibitor, single point]"
2,CCN(C(=O)Cn1nc(C)n2c(cc3cc(C)ccc32)c1=O)c1ccccc1,"inconclusive: 13.1 µM [inhibitor, single point]"
3,Cc1ccc(S(=O)(=O)c2cc3c(=O)n4cccc(C)c4nc3n(CC3CCCO3)c2=N)cc1 (stereo not drawn),"inconclusive: 4.65 µM [inhibitor, partial curve, poor fit]"
4,O=C(C(Cc1ccccc1)n1cccc1)N1CCCCC1 (stereo not drawn),"inconclusive: 6.57 µM [inhibitor, partial curve]"
5,CCc1ccc(/C=N/NC(=O)c2cc(C3CC3)nc3ccccc23)s1,"inconclusive: 20.8 µM [inhibitor, partial curve, poor fit]"
6,CNC(=O)CCN(Cc1ccco1)S(=O)(=O)c1ccc(OC)c(OC)c1,inactive
7,CCc1ccc(N(C(=O)c2csnn2)C(C(=O)NC(C)(C)CC)c2ccccn2)cc1 (stereo not drawn),inactive
8,CCOC(=O)c1cccnc1SC(CC)C(=O)NCc1ccco1 (stereo not drawn),"inconclusive: 20.8 µM [inhibitor, single point]"
9,CCOc1ccc(Cl)cc1CSc1ncn[nH]1,"inconclusive: 13.1 µM [inhibitor, partial curve, poor fit]"
10,COc1c(Cl)cc(-c2noc(C)c2C(=O)NCc2ccccc2)cc1Cl,"inconclusive: 13.1 µM [inhibitor, single point]"
11,CCOc1cc(CNCCc2ccc(S(N)(=O)=O)cc2)ccc1OCc1ccccc1,"inconclusive: 1.04 µM [inhibitor, full curve, poor fit]"
12,COc1cc(/C=N/N2CCN(c3ccc(Cl)cc3)CC2)cc(OC)c1OC(C)=O,"inconclusive: 11.7 µM [inhibitor, single point]"
13,O=S(=O)(c1ccc(S(=O)(=O)N2CCC3(CC2)OCCO3)cc1)N1CCCC1,inactive
14,Cc1ccc(Cl)cc1N1CCN(C(=O)C2CCN(S(=O)(=O)c3cnc[nH]3)CC2)CC1,active: 2.62 µM
15,C/C(=N\NC(=O)CCCNc1ccc(C)cc1)c1ccccn1,"inconclusive: 11.7 µM [inhibitor, single point]"
16,CCCCCn1c(N)c(-c2nc3ccccc3o2)c2c([N+](=O)[O-])nn(CC)c(=O)c21,"inconclusive: 18.5 µM [inhibitor, single point]"
17,CCC(C)NCCOCCOc1ccccc1-c1ccccc1 (stereo not drawn),"inconclusive: 0.0052 µM [inhibitor, full curve, poor fit]"
18,O=C(CCl)N1CCN(S(=O)(=O)c2ccc3c(c2)OCCCO3)CC1,"inconclusive: 10.4 µM [inhibitor, single point]"
19,Cc1cc(C)nc(NN=C(c2ccccc2)c2ccccc2)n1,active: 13.1 µM
20,C=CCc1cc(OC)c(O)c(C(=O)NCCO)c1,inactive
21,COc1ccc(-c2c([C@H]3[C@H]4C=CC[C@@H](C)[C@@H]4C(=O)N3Cc3ccccc3)ccc3ccccc23)cc1,active: 9.28 µM
22,Nc1ccc(NC(=O)CCN2CCOCC2)cc1,"inconclusive: 2.33 µM [inhibitor, full curve]"
23,Cn1c(CNC(=O)CCNC(=O)c2cccc(Cl)c2)cc(=O)n(C)c1=O,"inconclusive: 18.5 µM [inhibitor, single point]"
24,O=C(Cc1ccccn1)c1ccc(F)cc1,"inconclusive: 20.8 µM [inhibitor, single point]"
25,COC(=O)Cn1nc(C)c2ccccc2c1=O,inactive

row,SMILES,Potency
1,O=C(Cn1c(=O)sc2ccccc21)NCc1ccccn1,"inconclusive: 8.28 µM [inhibitor, partial curve, poor fit]"
2,COc1ccc(-c2ccc(N)cn2)cn1,inactive
3,Nc1nc(-c2cccnc2)nc2sc3c(c12)CCCC3,inactive
4,COC(=O)C1(CO)NC(c2ccc(C)cc2)C2C(=O)N(c3ccccc3)C(=O)C21 (stereo not drawn),inactive
5,Cc1cc(N2CCCC2)ccc1NC(=O)COc1ccccc1,"inconclusive: 2.94 µM [inhibitor, full curve]"
6,O=C(CCS(=O)(=O)c1ccc2c(c1)NC(=O)CO2)NCCc1ccccc1,inactive
7,CC(=O)c1nn(-c2cccc(C(F)(F)F)c2)c(=O)[nH]c1=O,"inconclusive: 11.7 µM [inhibitor, partial curve, poor fit]"
8,CCn1c(=O)c(C(=O)CN2c3ccccc3CC2C)c(N)n(Cc2ccccc2)c1=O (stereo not drawn),"inconclusive: 10.4 µM [inhibitor, single point]"
9,O=C1C(Cl)=C(N2CCC(C(=O)O)CC2)C(=O)c2ccccc21,active: 11.7 µM
10,CC[N+](C)(C)CCN(Cc1ccc(Cl)cc1)c1ccccn1,active: 2.62 µM
11,COc1cc(/C=N/N2C(=O)c3ccccc3NC2(C)c2cccc([N+](=O)[O-])c2)cc(Br)c1O (stereo not drawn),"inconclusive: 18.5 µM [inhibitor, single point]"
12,Cc1ccc(C(=O)N/C(=C\c2ccco2)C(=O)NCc2cccnc2)cc1,"inconclusive: 11.7 µM [inhibitor, single point]"
13,CCCCN1Cc2cc(C(=O)c3cc(F)ccc3O)cnc2NC1=O,inactive
14,O=C(c1ccc(Br)c(S(=O)(=O)N2CCCCC2)c1)N1CCCCC1,"inconclusive: 18.5 µM [inhibitor, single point]"
15,COc1ccc(NC(=O)Nc2cccc3ccccc23)cc1OC,"inconclusive: 13.1 µM [inhibitor, single point]"
16,CSc1ncccc1C(=O)OCc1ccc([N+](=O)[O-])cc1,"inconclusive: 0.657 µM [inhibitor, full curve, poor fit]"
17,COC(=O)c1c(C(=O)OC)c(-c2ccc(Cl)cc2)n2c1CS(=O)(=O)C2,"inconclusive: 14.7 µM [inhibitor, partial curve, poor fit]"
18,CCn1c(=NC(=O)CSC(C)=O)sc2ccccc21,"inconclusive: 10.4 µM [inhibitor, single point]"
19,Cc1nc2ccccn2c1C(=O)N=Nc1c(O)n(CCC(C)C)c2ccccc12,"inconclusive: 14.7 µM [inhibitor, single point]"
20,CCN(CC)CCCN1C=C2C(=O)C(C)(OC(=O)C3CCCC3)C(=O)C=C2C=C1c1ccsc1 (stereo not drawn),"inconclusive: 14.7 µM [inhibitor, single point]"
21,CC(C)C(OC(=O)CN1C(=O)c2ccccc2C1=O)C(=O)NC1CCCCC1 (stereo not drawn),inactive
22,O=C(NC(O)C(=O)c1ccc(F)cc1)c1ccc(F)cc1 (stereo not drawn),"inconclusive: 0.465 µM [inhibitor, full curve, poor fit]"
23,NC(=O)C1(N2CCCCC2)CCN(C(=O)Nc2ccccc2C(F)(F)F)CC1,active: 1.65 µM
24,COc1ccc(CCC(C)NCC(C)c2ccccc2)cc1 (stereo not drawn),"inconclusive: 18.5 µM [inhibitor, single point]"
25,Cc1ccc(CN2C(=O)C3CCCN3c3ccc(C#N)cc32)cc1 (stereo not drawn),active: 1.65 µM

# Quoted from the listing, 3 compounds:
row,SMILES,Potency
2,COc1ccc(-c2ccc(N)cn2)cn1,inactive
3,Nc1nc(-c2cccnc2)nc2sc3c(c12)CCCC3,inactive
4,COC(=O)C1(CO)NC(c2ccc(C)cc2)C2C(=O)N(c3ccccc3)C(=O)C21 (stereo not drawn),inactive

# The list continues.

row,SMILES,Potency
1,CCOc1ccc(CCNC(=O)COC(=O)Cc2c[nH]c3ccccc23)cc1OCC,"inconclusive: 18.5 µM [inhibitor, single point]"
2,CCOC(=O)C1=NOC2C(=O)N(c3ccc(Cl)cc3Cl)C(=O)C12 (stereo not drawn),inactive
3,Cc1c(O)c(C)c2c(c1O)C(=O)C[C@@H](c1ccccc1)O2,"inconclusive: 5.86 µM [inhibitor, partial curve]"
4,O=C(COC(=O)/C=C/c1ccco1)Nc1cccc([N+](=O)[O-])c1,inactive
5,O=C(NCc1ccco1)c1sc2cc(F)ccc2c1Cl,active: 14.7 µM
6,C/C(=N\Nc1ccc(C(F)(F)F)cc1[N+](=O)[O-])C1CC1,inactive
7,CC(=O)c1c(C)[nH]c(C(=O)COC(=O)c2cc(C)oc2C)c1C,inactive
8,O=C(COc1ccccc1Cl)NCCCNC(=O)c1cccnc1,inactive
9,Cc1ccc(NC(=O)C(=O)NC2CCCCC2)cc1,inactive
10,CCSc1nc(=S)n(Cc2ccccc2)c(C)c1C(C)=O,"inconclusive: 2.94 µM [inhibitor, single point]"
11,COCCNC(=O)c1c(C)cc(C)cc1C,inactive
12,CCOC(=O)Nc1sc(C)nc1-c1ccccc1,"inconclusive: 4.15 µM [inhibitor, partial curve, poor fit]"
13,N#C/C(=C\c1ccc(Cl)cc1)c1nc2ccccc2o1,inactive
14,CCOc1ccc(-c2nc(CN3CCCCC3CCn3cccn3)c(C)o2)cc1 (stereo not drawn),"inconclusive: 14.7 µM [inhibitor, single point]"
15,Cc1ccc(NC(=O)Cn2ccc([N+](=O)[O-])n2)cc1Cl,"inconclusive: 11.7 µM [inhibitor, single point]"
16,CN1CCN(CC(=O)Nc2nc(-c3c[nH]c4ccccc34)cs2)CC1,"inconclusive: 4.65 µM [inhibitor, single point]"
17,CN(CCOc1ccccc1)C(=O)c1cc(S(=O)(=O)N2CCCCC2)ccc1Cl,"inconclusive: 18.5 µM [inhibitor, single point]"
18,Cc1cccc(OCCC(=O)Nc2ccc(C)c(S(=O)(=O)N3CCCCC3)c2)c1,"inconclusive: 14.7 µM [inhibitor, single point]"
19,COc1cccc(C(C(=O)NCC2CCCO2)N(C(=O)Cn2nnc3ccccc32)c2ccc(NC(C)=O)cc2)c1 (stereo not drawn),inactive
20,CC(C)CC(=O)NC(NC(=O)CC(C)C)c1cccc([N+](=O)[O-])c1,inactive
21,COc1ccccc1N1CCN(CCCCCCOc2ccc(F)cc2)CC1,"inconclusive: 18.5 µM [inhibitor, single point]"
22,Cc1cc(C)cc(OCC(=O)OCC(=O)Nc2ccc(Cl)cn2)c1,inactive
23,Cc1sc(-c2ccccn2)nc1OC(=O)c1ccc(Cl)c(Cl)c1,"inconclusive: 10.4 µM [inhibitor, partial curve, poor fit]"
